Results are given in words; binding and its absence hold for the method and conditions named. Binding seen in cells or lysates may run through a third protein. Some entries that bind do so weakly or less than the wild type. Where a sequence is shown, tags or fusion partners need not be part of it.
Assays:
[1] = target: T1, Flag-TCAF1 (human) (UniProt Q9Y4C2); assay: co-IP; 293T cells; lysate on anti-Flag M2 magnetic beads, 1.5 h, 4 C; lysis buffer 10 mM NaKPO4 pH 7.2, 150 mM NaCl, 1% sodium deoxycholate, 1% Triton X-100; also with STING knockdown or TRPV2 knockdown
T1 sequence: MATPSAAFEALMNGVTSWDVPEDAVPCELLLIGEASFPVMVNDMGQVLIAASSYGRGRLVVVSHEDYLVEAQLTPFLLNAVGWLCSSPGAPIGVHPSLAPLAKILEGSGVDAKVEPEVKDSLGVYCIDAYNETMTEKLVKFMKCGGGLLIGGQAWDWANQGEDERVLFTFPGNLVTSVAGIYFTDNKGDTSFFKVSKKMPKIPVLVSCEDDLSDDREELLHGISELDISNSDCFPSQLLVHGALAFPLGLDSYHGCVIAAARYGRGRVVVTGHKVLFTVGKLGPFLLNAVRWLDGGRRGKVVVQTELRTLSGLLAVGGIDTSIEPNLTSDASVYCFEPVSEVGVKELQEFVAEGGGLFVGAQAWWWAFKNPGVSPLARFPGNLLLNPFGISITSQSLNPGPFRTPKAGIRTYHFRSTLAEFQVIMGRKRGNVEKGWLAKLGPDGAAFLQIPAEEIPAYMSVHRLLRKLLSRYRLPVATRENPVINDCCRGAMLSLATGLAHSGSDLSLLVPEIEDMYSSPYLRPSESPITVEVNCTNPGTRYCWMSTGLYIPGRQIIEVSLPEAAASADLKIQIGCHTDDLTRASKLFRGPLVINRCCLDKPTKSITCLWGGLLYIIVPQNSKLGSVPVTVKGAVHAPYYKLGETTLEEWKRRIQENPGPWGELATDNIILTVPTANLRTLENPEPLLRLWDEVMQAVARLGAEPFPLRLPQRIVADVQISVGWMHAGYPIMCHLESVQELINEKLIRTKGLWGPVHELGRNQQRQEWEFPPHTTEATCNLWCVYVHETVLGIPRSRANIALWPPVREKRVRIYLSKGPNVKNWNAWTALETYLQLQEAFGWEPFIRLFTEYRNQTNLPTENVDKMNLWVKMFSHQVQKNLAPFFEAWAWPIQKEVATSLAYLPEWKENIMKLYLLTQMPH

Chains of the proteins cited; added tags and fusions are not shown.
UniProt Q86WV6: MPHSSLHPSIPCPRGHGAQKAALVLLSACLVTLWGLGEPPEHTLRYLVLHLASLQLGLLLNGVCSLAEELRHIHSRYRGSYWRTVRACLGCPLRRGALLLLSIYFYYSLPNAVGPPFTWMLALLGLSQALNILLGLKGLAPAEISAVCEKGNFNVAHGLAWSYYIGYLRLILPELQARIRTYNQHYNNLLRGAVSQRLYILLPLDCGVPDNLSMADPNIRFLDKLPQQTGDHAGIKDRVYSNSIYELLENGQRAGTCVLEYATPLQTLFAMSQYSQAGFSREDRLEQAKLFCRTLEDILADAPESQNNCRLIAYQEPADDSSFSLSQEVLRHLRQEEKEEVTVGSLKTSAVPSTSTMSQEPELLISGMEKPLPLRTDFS

[2] = target: T1, Flag-TCAF1 (human); assay: proximity ligation; HeLa cells expressing the two tagged proteins, fixed with 4% paraformaldehyde, permeabilised with 0.2% Triton X-100; Duolink PLUS and MINUS probes; cells untreated or treated with plasmid DNA (2 ug/ml, 7 h), cGAMP (5 ug/ml, 7 h), HU or MnCl2, with control or TCAF1 knockdown

Row | binding [1] | binding [2] | Substance
1 | binds | – | STING(WT)-HA (from UniProt Q86WV6 1-379)
2 | – | binds | STING-HA (from UniProt Q86WV6 1-379)
